PubChem BioAssay AID1259254 – NCATS | 2017
Shown is one part, drawn at random, of about 59,000 reagents. In the full data, about 1,550 (2.6%) got an active call. 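G2 share is only a proxy for re-replication; each gene was hit by three separate siRNAs, and active genes were retested.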 Entries without a mark were called inactive. Reagents against one gene are numbered here. Not all columns of the deposit are shown. Not stated in the record: the amount of reagent.

Assay: 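Genome-wide screen for genes that prevent DNA re-replication in cancer cells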 (primary screen)
Cells: human HCT116 colorectal cancer cells
Reagents: single siRNA against human genes
Time to read-out: 3 days
Measurement: 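Nuclei stained with Hoechst and imaged; cell-cycle phase assigned by DNA content; G2 share scaled per plate, non-targeting siRNA 0%, GMNN siRNA 100%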
Reading the numbers: G2 robust z-score: higher = more G2 cells, more excess DNA replication
Rule for the call: 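An siRNA counts as active if its G2 robust z-score lies at least 5 MADs above the screen median; here such calls match roughly 38% of GMNN control or more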

G2 robust z-score, by gene and reagent
ATAD2: #1 -0.779; #2 0.762; #3 -0.613
GLO1: #1 -0.341; #2 -0.485; #3 0.854
ANGPTL5: #1 -0.352; #2 -1.18; #3 0.302
PTBP1: #1 -1.34; #2 -0.664; #3 1.22
KIF7: #1 1.11; #2 2.37; #3 3.16
LUZP2: #1 -1.04; #2 2.73; #3 1.02
FABP1: #1 0.0596; #2 0.0358; #3 2.09
CCR3: #1 -1.26; #2 -0.356; #3 0.831
MIDN: #1 0.424; #2 0.0789; #3 -0.313
EFNB3: #1 0.251; #2 -0.685; #3 -0.159
UQCRHP2: #1 0.102; #2 -0.268; #3 0.303
LRAT: #1 3.3; #2 -0.738; #3 0.104
MAP3K10: #1 1.54; #2 -1.38; #3 -0.615
WTIP: #1 0.664; #2 0.891; #3 -0.14
ATP6V1G2: #1 -0.0616; #2 0.156; #3 0.476
RPL36: #1 0.962; #2 2.28; #3 6.43 (active)
BAG6: #1 -0.49; #2 0.769; #3 0.36
NUP98: #1 3.4; #2 1.55; #3 -0.467
CFAP44: #1 -0.626; #2 0.565; #3 -0.641
TNRC6A: #1 -0.782; #2 -0.251; #3 -0.825
LINC02939: #1 -0.767; #2 0.286; #3 0.288
KNTC1: #1 3.21; #2 -0.593; #3 -0.624
KAZALD1: #1 1.18; #2 -0.539; #3 -0.525

7 neighbouring records already listed:
G2 robust z-score, by gene and reagent
BAG6: #2 0.769; #3 0.36
NUP98: #1 3.4; #2 1.55; #3 -0.467
CFAP44: #1 -0.626; #2 0.565
